The list is a part of this screen's results and no random one: it gathers some chemical classes. Other doses and runs of a compound may be missing. T/C is the treated group as % of the vehicle group. Where survival is the endpoint, this PubChem deposit counts one and a half times the control or more as active, and values a quarter to a half above the control carry no call in these data; other NCI protocols may use other cut-offs. Some T/C values are marked as having no survivor count here; that says nothing about deaths at the dose. Schedules are NCI's codes, read here as Q, the interval in days (D) or hours (H), X, the number of doses.
Test system: BDF1 mice, B16 melanoma ip, median survival T/C
Test: NCI In Vivo Anticancer Drug Screen. Data for tumor model B16 Melanoma (intraperitoneal) in B6D2F1 (BDF1) mice
Settings: T/C endpoint: median survival time, higher T/C = longer survival
Method: The antitumor activity of compounds was measured in mice bearing transplantable tumors. Survival or tumor size were measured and the results are expressed as the measurement made in the treated group (T) divided by the measurement made in the vehicle treated control group (C). The tumor model used in this assay is B16 Melanoma (intraperitoneal) in B6D2F1 (BDF1) mice

## BrCCN(CCBr)Cc1ccccc1
dose: 0.25 mg/kg/injection, schedule: Q04DX003 (ip), vehicle: saline with Tween-80
  T/C: 99 % of control [survivor count not shown]
dose: 0.5 mg/kg/injection, schedule: Q04DX003 (ip), vehicle: saline with Tween-80
  T/C: 104 % of control [survivor count not shown]
dose: 0.9 mg/kg/injection, schedule: Q01DX009 (ip), vehicle: carboxymethylcellulose (CMC)
  T/C: 103 % of control [survivor count not shown]
dose: 1.0 mg/kg/injection, schedule: Q04DX003 (ip), vehicle: saline with Tween-80
  T/C: 98 % of control [survivor count not shown]
dose: 1.9 mg/kg/injection, schedule: Q01DX009 (ip), vehicle: carboxymethylcellulose (CMC)
  T/C: 92 % of control [survivor count not shown]
dose: 1.9 mg/kg/injection, schedule: Q04DX003 (ip), vehicle: saline with Tween-80
  T/C: 138 % of control [survivor count not shown]
dose: 2.0 mg/kg/injection, schedule: Q04DX003 (ip), vehicle: saline with Tween-80
  T/C: 115 % of control [survivor count not shown]
dose: 3.8 mg/kg/injection, schedule: Q01DX009 (ip), vehicle: carboxymethylcellulose (CMC)
  T/C: 97 % of control [survivor count not shown]
dose: 7.5 mg/kg/injection, schedule: Q01DX009 (ip), vehicle: carboxymethylcellulose (CMC)
  T/C: 105 % of control [survivor count not shown]
dose: 15.0 mg/kg/injection, schedule: Q01DX009 (ip), vehicle: carboxymethylcellulose (CMC)
  T/C: 100 % of control [survivor count not shown]
